Data as given in PubChem BioAssay AID1347426 (Functional Genomics Laboratory (NCATS/FGL), 2020).
The whole screen tested about 31,000 sequences, of which about 1,400 (4.5%) were called active.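 How the source made its calls: active means median seed-adjusted z-score above 1 or below -1; inactive means the rest.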 The list shows a part of the results.

Test: Novel Modifiers of Survival Motor Neuron (SMN) Protein: Gene Identification via Genome-wide siRNA Screen;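 further: luminescence tracks full-length SMN protein made from the SMN2 reporter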
Details: HEK293T SMN2-luciferase reporter, siRNA knockdown, 72 h; actives lie on both sides
Procedure, shortened: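 Steps: spot 1 pmol siRNA, add Lipofectamine RNAiMax in serum-free DMEM, seed HEK293T SMN2–luciferase reporter cells; incubate 72 h at 37 °C; add ONE-Glo; normalize luminescence to control siRNA, log10, MAD. Candidates: |MAD| > 1.0.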

Row | Sequence | median seed-adjusted z-score
1 | GUAUCGUCCGUGUCUCAGATT against SLC26A8 | inactive: -0.145
2 | GGCUACAAGUAGAGAGUUUTT against ESPL1 | inactive: 0.871
3 | GGUGAAGAUUGGUGACUAUTT against AATK | inactive: -0.621
4 | CGGACUGGGAAGUUACUAATT against GNL2 | inactive: 0.739
5 | GGAGAUCUAAAAGUGAAUATT against KLRF1 | inactive: 0.00941
6 | GGGAAGAAGUUCACCGCAATT against DTX1 | inactive: -0.0757
7 | GGAAAUCGUCGUCAACCCATT against GALNT14 | inactive: 0
8 | GGAUAGCAGCUAUUAGGGATT against MBTPS2 | inactive: -0.324
9 | GCAGCAACAUUAUUGUCUUTT against CLDN17 | inactive: 0
10 | GGUCAUUACCAUAUCUGAUTT against MNDA | inactive: 0.232
11 | CGCCCAUUGUACGUGCUAATT against VPS18 | inactive: 0.181
12 | GAAGGAUCCUGGACAGGGATT against AQP10 | inactive: -0.09
13 | GGGCUGGAAUUACUAUGGATT against CCNH | inactive: -0.659
14 | GGCUGUACAUAGUCCUUUUTT against SNRPB | active: -3.17
15 | GGUUUGAACAUAAAGAGUUTT against ST6GAL2 | inactive: 0.054
16 | CAAUCAACUGUAGAGAGUATT against ZNF343 | inactive: 0.0696
17 | GGACCUCUCAUGAAAGUGATT against CSGALNACT2 | inactive: 0.236
18 | CAUCUGGAAUUAACUGGAUTT against NUDT1 | inactive: -0.175
19 | AGAGAAAGCUGUACAGAGATT against ZNF705A | inactive: 0.669
20 | GAACAGGAGAUGUUGCACATT against ZBTB32 | inactive: 0.458
21 | GCGUGAAUUUUUCUAUACATT against CRY1 | inactive: 0.0564
22 | GCAUUAGAAACUUACAAGATT against TROVE2 | inactive: 0.399

Row | Sequence | median seed-adjusted z-score
23 | GAAAGUUGAUGACGUGUUATT against ZNF248 | inactive: -0.0486
24 | GGAUGCCAUCGUUUUUGUATT against CCL17 | inactive: 0.178
25 | GCUUCCUCCAAGCAAGAGATT against ZNF174 | inactive: 0.035
26 | GCACUCUGAAGAUCGAAUATT against HNRNPL | active: 1.04
27 | CACAAGAUAUCAGGAGAAATT against FCRL2 | inactive: -0.294
28 | AGCUCAUGCUGUCUAGCAATT against DUSP18 | inactive: 0.13
29 | GCCCUGAUUUGUGCAAUGATT against PPP1R16B | inactive: -0.892
30 | GAACUUCUCCAGAGGAUAATT against NGLY1 | inactive: -0.0453
31 | GAACGAUUCUCUCUAUAGATT against DSG1 | inactive: 0.187
32 | GCGUAGUUAUAGAAGUAGATT against RBMX2 | inactive: -0.585
33 | CUCAAUACCUCAUCAGUCATT against NOVA2 | inactive: 0
34 | UACCGUAAAUGUCCAUUUATT against CDKN2A | inactive: -0.0748
35 | UGAUGAAGUACAUCCAUUATT against BCL2 | inactive: 0
36 | GCGGUGUUGUGGACAAACATT against PTPRB | inactive: -0.0981
37 | GCAACGUGUACUUCGCCAATT against KCNJ4 | inactive: -0.492
38 | AGGUCAAGGUUGACAACCATT against SYN1 | inactive: -0.458
39 | GCAUUGACGUGAUGGUCCATT against ATAD3B | inactive: -0.624
40 | GGAAUGGAAUUUAAAUUUATT against EGLN3 | inactive: -0.0575
41 | CCAGAACCGACGCUACAAATT against NKX2-6 | inactive: -0.00448
42 | CGCUAUGCGGAGUUCUACATT against ALOX12B | inactive: 0.0071
43 | GGAUAAGAACAUCAUAGAATT against SYK | inactive: 0.567
44 | GGAUAAAUCGAUUCAUGUATT against VILL | inactive: 0.518

Numbers 13–14 of the list above:
Row | Sequence | median seed-adjusted z-score
13 | GGGCUGGAAUUACUAUGGATT against CCNH | inactive: -0.659
14 | GGCUGUACAUAGUCCUUUUTT against SNRPB | active: -3.17

Going on with the list.

Row | Sequence | median seed-adjusted z-score
45 | GGGCAGUUGAUGAACGAAUTT against COG2 | inactive: 0.791
46 | CCCAUGUGAUCAAACGGUATT against SNX26 | inactive: -0.788
47 | AGAAAUUGCUGUCCCAUAATT against RNF185 | inactive: -0.388
48 | GGAACAAAUUCUUAUGCGATT against MORC3 | inactive: 0.245
49 | GAACAUGAGUAUAAGUGUGTT against PTPRC | inactive: 0.197
50 | AGUAUUUCGUGCGCACCAATT against MGAT3 | inactive: -0.118
51 | GGACGACCUCUAUGACCAATT against LSR | inactive: 0.306
52 | GGCAAGGUCUUGUCACUGATT against STK11IP | inactive: 0.0745
53 | ACAUUUAGCCCUCUACUCATT against SLC46A1 | inactive: -0.00763
54 | CAUGCGUCCUCAUAUCUUUTT against CHRNA9 | inactive: -0.454
55 | CUAUCAUACAAUUCCGAGATT against APPL2 | inactive: -0.245
56 | CUUGUUCCCUAUUCAAUCATT against HSPA4L | inactive: 0.288
57 | GAAGUAGGAAGAUCAUGUATT against CPSF3 | inactive: -0.918
58 | GGCCUGAUGCAGCUACUAUTT against TPP2 | inactive: -0.562
59 | CGAAUUUGACGAGAACAAATT against ARPC5L | inactive: -0.36
60 | CGAUGUGAUGAAUAAUUCUTT against PRPH2 | inactive: 0.0931
61 | GAAUGAGCUUAGCAAUCCATT against BAI3 | inactive: 0.0657
62 | CCACUGCGGACCAACUAUATT against NPTX1 | inactive: -0.117
63 | GGGUAACAAGGUAGACAAATT against RAB9B | inactive: -0.0301
64 | AGAUGAACCUGUCACUCAATT against DUSP7 | inactive: 0
65 | GGAUGACAACGAACGCAUUTT against RASSF2 | inactive: -0.649
66 | CAUUAGAUCAGGCAAGUGATT against METAP2 | inactive: 0.325

Some of the entries above, set out differently:
Row	Sequence	median seed-adjusted z-score
28	AGCUCAUGCUGUCUAGCAATT against DUSP18	inactive: 0.13
29	GCCCUGAUUUGUGCAAUGATT against PPP1R16B	inactive: -0.892
30	GAACUUCUCCAGAGGAUAATT against NGLY1	inactive: -0.0453
31	GAACGAUUCUCUCUAUAGATT against DSG1	inactive: 0.187
32	GCGUAGUUAUAGAAGUAGATT against RBMX2	inactive: -0.585
33	CUCAAUACCUCAUCAGUCATT against NOVA2	inactive: 0
34	UACCGUAAAUGUCCAUUUATT against CDKN2A	inactive: -0.0748

Carrying on:

Row | Sequence | median seed-adjusted z-score
67 | CCUUCAAUGGUAGCGAGAATT against KRT31 | inactive: 0.604
68 | ACUCAGUCCUGUUUGACAATT against ADC | inactive: -0.157
69 | GGCAAGUUGUUCUCCGUAATT against NUP160 | inactive: -0.261
70 | CAGCAAAAACGUAAGAUCUTT against ZFAND2B | inactive: 0
71 | GCAUGUCCAUUUCGGCUGATT against BPI | inactive: 0
72 | CAAAGAUGAUUAUCCAUCUTT against UBE2I | inactive: 0.717
73 | GGAUUGUAUUAAAUCCAGATT against SLC25A2 | inactive: 0.586
74 | GAGGAAUAUUGAAGGCAAATT against IRF2 | inactive: 0.367
75 | CUACGGAGAGUGUACGAUUTT against CHST2 | inactive: 0
76 | GGAAAUAUCGGAACCAGAATT against JMJD6 | inactive: 0.314
77 | GCAUAGCAGAAUGGAGUAATT against MUSK | inactive: 0.138
78 | CCAUCCUUCCCAGAUAUUATT against HDDC3 | inactive: 0.549
79 | GGUCAUUGAUUUAGAUGAATT against CTDSPL | inactive: 0.43
80 | CAACAACGAGAAUCCUGAATT against TSPYL2 | inactive: 0.0187
81 | GAGGCUUGCUGGACCUAAATT against PLA2G5 | inactive: 0.0601
82 | GCAAUUACAUUGUACGCUUTT against ETFDH | inactive: 0.154
83 | GGACCACGUCAAGACUUGUTT against TRAF2 | inactive: -0.00463
84 | GGUAUGAACAGUAUGCCUATT against HLA-G | inactive: 0.0348
85 | CUGUUGGAAUUCUUCGAAATT against AGL | inactive: -0.385
86 | GUACCUUUCUACCACUUUATT against MITF | inactive: -0.249
87 | GGAGUUCAUCCGUCAAGUUTT against BIRC3 | inactive: -0.644
88 | GCUUCAUCGUGUACUACAATT against INSRR | inactive: 0.13

Row | Sequence | median seed-adjusted z-score
89 | GAACAACAGAGAUAAGAAATT against CRCP | inactive: 0
90 | CCGUCUCUUCUUGACCUAUTT against B3GNT4 | inactive: 0.124
91 | GGACAUGGGUCAGAGUGAATT against GRPEL1 | inactive: 0
92 | GGAAGUCUGUUGACACUCATT against JMJD1C | inactive: 0.0338
93 | GGUGUGGAGUUUCAAAGUATT against DUXA | inactive: 0
94 | GAACGAGGUGUACUGCCUGTT against FBLIM1 | inactive: 0.0604
95 | GGACCUCUCGAUUCACAAUTT against NCR2 | inactive: -0.0526
96 | CUAUCACUCUGGAACUGGATT against SMC2 | inactive: -0.052
97 | GCUUACUACACUUUUCUAATT against G6PC2 | inactive: -0.0362
98 | AGCGCAUCGUGAUUGGAGATT against ATP4A | inactive: 0
99 | AGACGGUCCUCUUUCGACATT against LOC442229 | inactive: 0.183
100 | AGCCUGAAACCAACACAUUTT against NAT8L | inactive: 0
101 | GAACCUGUACGGGAUGCUATT against KIF12 | inactive: 0.0971
102 | CAGUGACUAUAAACUUGUUTT against PCDHAC1 | inactive: -0.189
103 | CUAUAGCUGUCUCCCAGAATT against PRICKLE2 | active: -1.12
104 | GGGCAACUUCAAAUCGAUATT against DNAJB6 | inactive: -0.251
105 | GGUCUUGGAGGGAAUCCUATT against AOF2 | inactive: -0.215
106 | GCCCAUCGAUGGUAUACAUTT against SMARCA2 | inactive: -0.458
107 | CAGCCCUAAUAAUUACUUUTT against PCDHGA11 | inactive: 0.0518
